# From PubChem BioAssay AID272 (DTP/NCI, 2004)
# The list shows only some results of the screen, not a fair sample: it gathers tests that were run many times, whatever their T/C, doses with no T/C, and many T/C values between a quarter and a half above the control. Other doses and runs of a compound stand elsewhere. T/C is the treated group as % of the vehicle group. Some T/C values carry the count of animals alive at the toxicity check (mostly the fifth day); where none is given, no animal had died by that day. Schedule codes are those of the source, taken here to give the interval after Q, in days (D) or hours (H), and the number of doses after X. Some doses have a count of surviving animals in place of a T/C: the source files T/C as zero there, which appears to mark a toxic dose or a test without result, not a measured value. Some doses without a T/C left all or most animals alive at the check, yet need not have been tolerated: survival well below the control is almost never listed, so the zero probably covers shortened survival too. Survivors were counted at the toxicity check, usually on the fifth day, unless a day is given; later deaths do not show. Marks such as (2×) give the number of equal values in this list. Some doses were run more than once; the results are listed from low to high. Where survival is the endpoint, this PubChem deposit counts one and a half times the control or more as active, and values a quarter to a half above the control carry no call in these data; other NCI protocols may use other cut-offs. Some schedule codes hold Z or #, which are not explained here.
# Tested on: Lewis lung carcinoma i.m., BDF1 mice, T/C %
# Assay: NCI In Vivo Anticancer Drug Screen. Data for tumor model Lewis Lung Carcinoma (intramuscular) in B6D2F1 (BDF1) mice
# In short: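 Compound given to mice with transplantable tumours; survival or tumour size compared against the vehicle control group, reported as T divided by C.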
# [1] = T/C endpoint: median survival time, dose: 2.0 mg/kg/injection, schedule: Q01DX011 (ip), vehicle: saline, higher T/C = longer survival
# [2] = T/C endpoint: median survival time, dose: 1.5 mg/kg/injection, schedule: Q01DX011 (ip), vehicle: saline, higher T/C = longer survival
# [3] = T/C endpoint: median survival time, dose: 3.0 mg/kg/injection, schedule: Q01DX011 (ip), vehicle: saline, higher T/C = longer survival
# [4] = T/C endpoint: median survival time, dose: 5.0 mg/kg/injection, schedule: Q01DX011 (ip), vehicle: saline, higher T/C = longer survival
# [5] = T/C endpoint: median survival time, dose: 10.0 mg/kg/injection, schedule: Q01DX011 (ip), vehicle: saline, higher T/C = longer survival
# [6] = T/C endpoint: median survival time, dose: 20.0 mg/kg/injection, schedule: Q01DX011 (ip), vehicle: saline, higher T/C = longer survival
# [7] = T/C endpoint: median survival time, dose: 1.0 mg/kg/injection, schedule: Q01DX011 (ip), vehicle: saline, higher T/C = longer survival
compound,measurement,setting,value
COC(=O)Nc1nc2ccc(C(=O)c3cccs3)cc2[nH]1,survivor count,"T/C endpoint: median survival time, dose: 50.0 mg/kg/injection, schedule: Q03DX008 (ip), vehicle: other, higher T/C = longer survival",10 of 10
same,T/C,"T/C endpoint: median survival time, dose: 50.0 mg/kg/injection, schedule: Q## X005 (ip), vehicle: other, higher T/C = longer survival",134 % of control
same,T/C,"T/C endpoint: median survival time, dose: 60.0 mg/kg/injection, schedule: Q## X005 (ip), vehicle: other, higher T/C = longer survival",133 % of control
same,T/C,"T/C endpoint: median survival time, dose: 70.0 mg/kg/injection, schedule: Q## X005 (ip), vehicle: other, higher T/C = longer survival",137 % of control [8 of 10 alive]
CCCCCCCCCCCCCCCC(=O)OCC1OC(n2ccc(N)nc2=O)C(O)C1O (stereo not given),survivor count,"T/C endpoint: mean tumor weight (est.), dose: 100.0 mg/kg/injection, schedule: Q04DX003 (ip), vehicle: saline, higher T/C = larger tumour",5 of 8
same,survivor count,"T/C endpoint: mean tumor weight (est.), dose: 300.0 mg/kg/injection, schedule: Q01DX001 (ip), vehicle: saline, higher T/C = larger tumour",2 of 8
same,survivor count,"T/C endpoint: mean tumor weight (est.), dose: 600.0 mg/kg/injection, schedule: Q01DX001 (ip), vehicle: saline, higher T/C = larger tumour",1 of 8
same,survivor count,"T/C endpoint: median survival time, dose: 7.5 mg/kg/injection, schedule: Q01DX009 (ip), vehicle: saline, higher T/C = longer survival",7 of 8
same,survivor count,"T/C endpoint: median survival time, dose: 15.0 mg/kg/injection, schedule: Q01DX009 (ip), vehicle: saline, higher T/C = longer survival",7 of 8
same,T/C,"T/C endpoint: median survival time, dose: 25.0 mg/kg/injection, schedule: Q04DX003 (ip), vehicle: saline, higher T/C = longer survival",141 % of control
same,survivor count,"T/C endpoint: median survival time, dose: 30.0 mg/kg/injection, schedule: Q01DX009 (ip), vehicle: saline, higher T/C = longer survival",5 of 8
same,survivor count,"T/C endpoint: median survival time, dose: 50.0 mg/kg/injection, schedule: Q04DX003 (ip), vehicle: saline, higher T/C = longer survival",7 of 8
same,survivor count,"T/C endpoint: median survival time, dose: 60.0 mg/kg/injection, schedule: Q01DX009 (ip), vehicle: saline, higher T/C = longer survival",0 of 8
same,survivor count,"T/C endpoint: median survival time, dose: 75.0 mg/kg/injection, schedule: Q01DX001 (ip), vehicle: saline, higher T/C = longer survival",6 of 8
same,survivor count,"T/C endpoint: median survival time, dose: 100.0 mg/kg/injection, schedule: Q04DX003 (ip), vehicle: saline, higher T/C = longer survival",5 of 8
same,survivor count,"T/C endpoint: median survival time, dose: 120.0 mg/kg/injection, schedule: Q01DX009 (ip), vehicle: saline, higher T/C = longer survival",0 of 8
same,survivor count,"T/C endpoint: median survival time, dose: 200.0 mg/kg/injection, schedule: Q04DX003 (ip), vehicle: saline, higher T/C = longer survival",0 of 8
same,survivor count,"T/C endpoint: median survival time, dose: 300.0 mg/kg/injection, schedule: Q01DX001 (ip), vehicle: saline, higher T/C = longer survival",2 of 8
same,survivor count,"T/C endpoint: median survival time, dose: 400.0 mg/kg/injection, schedule: Q04DX003 (ip), vehicle: saline, higher T/C = longer survival",0 of 8
same,survivor count,"T/C endpoint: median survival time, dose: 600.0 mg/kg/injection, schedule: Q01DX001 (ip), vehicle: saline, higher T/C = longer survival",1 of 8
Cc1c(N)nc(C(CC(N)=O)NCC(N)C(N)=O)nc1C(=O)NC(C(=O)NC(C)C(O)C(C)C(=O)NC(C(=O)NCCc1nc(-c2nc(C(=O)NCCCCN=C(N)N)cs2)cs1)C(C)O)C(OC1OC(CO)C(O)C(O)C1OC1OC(CO)C(O)C(OC(N)=O)C1O)c1cnc[nH]1 (stereo not given),T/C,"T/C endpoint: median survival time, dose: 2.3 mg/kg/injection, schedule: Q01DX011 (ip), vehicle: saline, higher T/C = longer survival",133 % of control
same,survivor count,"T/C endpoint: median survival time, dose: 50.0 mg/kg/injection, schedule: Q01DX011 (ip), vehicle: saline, higher T/C = longer survival",5 of 8
COc1cc2c(c(OC)c1OC)-c1ccc(OC)c(=O)cc1[C@@H](NC=O)CC2,survivor count,[1],0 of 8
same,survivor count,"T/C endpoint: median survival time, dose: 4.0 mg/kg/injection, schedule: Q01DX011 (ip), vehicle: saline, higher T/C = longer survival",0 of 8
N[C@@H](Cc1ccc(N(CCCl)CCCl)cc1)C(=O)O,T/C,"T/C endpoint: mean tumor weight, dose: 0.38 mg/kg/injection, schedule: Q01DX011 (ip), vehicle: saline, evaluated on day 12, higher T/C = larger tumour",134 % of control [7 of 8 alive]
same,T/C,"T/C endpoint: mean tumor weight, dose: 0.75 mg/kg/injection, schedule: Q01DX011 (ip), vehicle: saline, evaluated on day 12, higher T/C = larger tumour",131 % of control [7 of 8 alive]
same,survivor count,"T/C endpoint: mean tumor weight, dose: 6.0 mg/kg/injection, schedule: Q01DX011 (ip), vehicle: saline, higher T/C = larger tumour",1 of 8 and 3 of 8
same,survivor count,"T/C endpoint: median survival time, dose: 0.38 mg/kg/injection, schedule: Q01DX011 (ip), vehicle: saline, higher T/C = longer survival",8 of 8
same,T/C,"T/C endpoint: median survival time, dose: 1.2 mg/kg/injection, schedule: Q01DX011 (ip), vehicle: saline, higher T/C = longer survival",133 % of control
same,T/C,[2],138 % of control
same,survivor count,[2],6 of 8
same,T/C,"T/C endpoint: median survival time, dose: 2.5 mg/kg/injection, schedule: Q01DX011 (ip), vehicle: saline, higher T/C = longer survival",144 % of control [9 of 10 alive]
same,survivor count,"T/C endpoint: median survival time, dose: 3.0 mg/kg/injection, schedule: Q01DX011 (ip), vehicle: other, higher T/C = longer survival",8 of 8
same,T/C,[3],130 % of control
same,survivor count,[3],8 of 8 (2×)
same,survivor count,[4],10 of 10
same,survivor count,"T/C endpoint: median survival time, dose: 6.0 mg/kg/injection, schedule: Q01DX011 (ip), vehicle: other, higher T/C = longer survival",4 of 8
same,survivor count,"T/C endpoint: median survival time, dose: 6.0 mg/kg/injection, schedule: Q01DX011 (ip), vehicle: saline, higher T/C = longer survival",1 of 8 and 3 of 8 (2×)
same,T/C,"T/C endpoint: median survival time, dose: 9.0 mg/kg/injection, schedule: Q01DX001 (ip), vehicle: saline, higher T/C = longer survival",129 % of control
same,survivor count,[5],1 of 10 and 6 of 10
same,T/C,"T/C endpoint: median survival time, dose: 15.0 mg/kg/injection, schedule: Q01DX001 (ip), vehicle: saline, higher T/C = longer survival",138 % of control
same,survivor count,"T/C endpoint: median survival time, dose: 25.0 mg/kg/injection, schedule: Q01DX001 (ip), vehicle: saline, higher T/C = longer survival",6 of 10 on day 45
CCC[N+](CCC)=c1ccc2nc3c(C)cc(N(CC)CC)cc3sc-2c1,survivor count,"T/C endpoint: mean tumor weight (est.), dose: 5.0 mg/kg/injection, schedule: Q01DX011 (ip), vehicle: saline, higher T/C = larger tumour",4 of 8
same,survivor count,[4],4 of 8
same,survivor count,[5],0 of 8
same,survivor count,[6],0 of 8
same,survivor count,"T/C endpoint: median survival time, dose: 40.0 mg/kg/injection, schedule: Q01DX011 (ip), vehicle: saline, higher T/C = longer survival",0 of 8
same,survivor count,"T/C endpoint: median survival time, dose: 80.0 mg/kg/injection, schedule: Q01DX011 (ip), vehicle: saline, higher T/C = longer survival",0 of 8
COc1c2c([n+](C)c3c(OC)cccc13)OC(C(C)C)C2 (stereo not given),survivor count,"T/C endpoint: mean tumor weight (est.), dose: 1.0 mg/kg/injection, schedule: Q01DX011 (ip), vehicle: saline, higher T/C = larger tumour",5 of 8
same,survivor count,[7],5 of 8
same,survivor count,[1],0 of 8
Cc1nc(N)c(C)c(C(=O)O)n1,T/C,"T/C endpoint: median survival time, dose: 16.0 mg/kg/injection, schedule: Q01DX009 (ip), vehicle: water, higher T/C = longer survival",130 % of control
same,T/C,"T/C endpoint: median survival time, dose: 32.0 mg/kg/injection, schedule: Q01DX009 (ip), vehicle: water, higher T/C = longer survival",129 % of control
CCCCCCCCCCCCCCCC[N+](C)(C)c1nc(Cl)nc(Cl)n1,survivor count,"T/C endpoint: mean tumor weight (est.), dose: 30.0 mg/kg/injection, schedule: Q01DX011 (ip), vehicle: saline, higher T/C = larger tumour",1 of 8
same,survivor count,"T/C endpoint: median survival time, dose: 30.0 mg/kg/injection, schedule: Q01DX011 (ip), vehicle: saline, higher T/C = longer survival",1 of 8
same,survivor count,"T/C endpoint: median survival time, dose: 60.0 mg/kg/injection, schedule: Q01DX011 (ip), vehicle: saline, higher T/C = longer survival",0 of 8
CC(=O)OC(C1CO1)C(OC(C)=O)C1CO1 (stereo not given),survivor count,[6],10 of 10
O=S(=O)(O)SCCNCCCCCC1CCCCC1,survivor count,"T/C endpoint: mean tumor weight (est.), dose: 12.0 mg/kg/injection, schedule: Q01DX011 (ip), vehicle: saline, higher T/C = larger tumour",5 of 8
same,survivor count,"T/C endpoint: median survival time, dose: 12.0 mg/kg/injection, schedule: Q01DX011 (ip), vehicle: saline, higher T/C = longer survival",5 of 8
O=C(O)c1[nH]c(=O)[nH]c(=O)c1F,survivor count,"T/C endpoint: median survival time, dose: 5.0 mg/kg/injection, schedule: Q01DX011 (ip), vehicle: other, higher T/C = longer survival",8 of 8
same,survivor count,"T/C endpoint: median survival time, dose: 10.0 mg/kg/injection, schedule: Q01DX011 (ip), vehicle: other, higher T/C = longer survival",0 of 8
same,survivor count,"T/C endpoint: median survival time, dose: 20.0 mg/kg/injection, schedule: Q01DX011 (ip), vehicle: other, higher T/C = longer survival",0 of 8
same,survivor count,"T/C endpoint: median survival time, dose: 40.0 mg/kg/injection, schedule: Q01DX011 (ip), vehicle: other, higher T/C = longer survival",0 of 8
C=CCN1/C(=C/C=C\c2sc3ccccc3[n+]2CC=C)Sc2ccccc21,survivor count,[7],8 of 8
CCCCCCCCCCCCCCCC(=O)N(C/C=C/CN(CCCN(C)C)C(=O)CCCCCCCCCCCCCCC)CCCN(C)C,survivor count,"T/C endpoint: mean tumor weight (est.), dose: 25.0 mg/kg/injection, schedule: Q01DX011 (ip), vehicle: saline with Tween-80, higher T/C = larger tumour",1 of 8
same,survivor count,"T/C endpoint: median survival time, dose: 25.0 mg/kg/injection, schedule: Q01DX011 (ip), vehicle: saline with Tween-80, higher T/C = longer survival",1 of 8
same,survivor count,"T/C endpoint: median survival time, dose: 50.0 mg/kg/injection, schedule: Q01DX011 (ip), vehicle: saline with Tween-80, higher T/C = longer survival",0 of 8
same,survivor count,"T/C endpoint: median survival time, dose: 100.0 mg/kg/injection, schedule: Q01DX011 (ip), vehicle: saline with Tween-80, higher T/C = longer survival",0 of 8
ClC1(c2ccccc2)c2ccc(Br)cc2-c2cc(Br)ccc21,survivor count,"T/C endpoint: mean tumor weight (est.), dose: 400.0 mg/kg/injection, schedule: Q01DX011 (ip), vehicle: saline, higher T/C = larger tumour",4 of 8
same,survivor count,"T/C endpoint: median survival time, dose: 400.0 mg/kg/injection, schedule: Q01DX011 (ip), vehicle: saline, higher T/C = longer survival",4 of 8
